From patent US10344071B2, “Identification of novel anti-fibrotic peptide in C-terminal region of the MET receptor tyrosine kinase” (MUSC Foundation for Research Development, priority 2015, dated 2019)
At least one peptide structure holds a part that was inferred or is arguable (an end, a ring closure or a residue). Ends that are not written are not given here.

The chains behind the UniProt entries cited, without tags or fusion partners.
UniProt Q15796, whole entry: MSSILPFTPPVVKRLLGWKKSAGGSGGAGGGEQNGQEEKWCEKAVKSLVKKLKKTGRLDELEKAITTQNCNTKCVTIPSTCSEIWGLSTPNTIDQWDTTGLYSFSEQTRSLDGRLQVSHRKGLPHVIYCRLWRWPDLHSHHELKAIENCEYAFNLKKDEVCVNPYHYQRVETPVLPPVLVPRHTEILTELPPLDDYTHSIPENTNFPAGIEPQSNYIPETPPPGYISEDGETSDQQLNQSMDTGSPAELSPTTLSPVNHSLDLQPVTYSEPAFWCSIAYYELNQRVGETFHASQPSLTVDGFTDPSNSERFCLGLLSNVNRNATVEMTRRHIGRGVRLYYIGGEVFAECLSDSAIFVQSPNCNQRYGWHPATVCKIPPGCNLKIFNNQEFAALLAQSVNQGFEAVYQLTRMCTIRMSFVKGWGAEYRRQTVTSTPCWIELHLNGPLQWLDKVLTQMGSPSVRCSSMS

Tests used:
[1] = tested on: fetal lung fibroblasts (MRC5 immortal cell line); experiment: TGFβ-induced collagen type I, immunoblot; format: cell-based, human
Protocol: FIG. 11, comprising FIG. 11A and FIG. 11B, depicts the effect of M10 on TGFβ-induced collagen type 1. FIG. 11A depicts MRC5 cells, normal lung fibroblasts, and normal skin fibroblasts were incubated with or without M10, scrambled peptide (Scr), and TGFβ for 48 hours in serum-free medium. Cell extracts were immunoblotted with anticollagen type I and anti-β-actin antibodies. FIG. 11B depicts densitometric analysis of collagen type I immunoblots from 2 independent experiments.
FIG. 17A depicts 1403 and 1404 peptides inhibit collagen in TGFβ-stimulated LF. Cells were incubated with and without TGFβ (5 ng/ml), 1403, and 1404 peptides (1 μg/ml) or scrambled peptide (Control, Co) for 24 h and analyzed by immunoblotting using anti-collagen type I antibody. FIG. 17B depicts 1403 and 1404 but not M10 protect AEC from FasL- and cisplatin-induced apoptosis. AEC were incubated with or without 1403, 1404, or scrambled (Control) peptides, FasL, and cisplatin for 24 hours and analyzed by Caspase 3 Assay from Abcam.
Cells were collected and analyzed by immunoblotting as previously described (Bogatkevich et al., J Biol Chem. 2001, 276:45184-45192; Bogatkevich et al., Arthritis Rheum. 2007, 56:3468-3477). The phosphorylation of Smad2 was analyzed by Western blot using anti-phospho-Smad2 antibody in accordance with the manufacturer's instructions (Cell Signaling Technology). Briefly, lung and skin fibroblasts were cultured on 6-well plates (2×10^6 cells/well) to 90% confluence, synchronized with serum-free DMEM for 24 hours, and then pretreated for 40 minutes with or without M10. Next, cells were incubated with or without TGFβ (5 ng/ml) for 20 minutes, rapidly washed with ice-cold PBS and collected in 1×SDS sample buffer (100 μl/well). Twenty μl of sample was separated on 4-20% SDS polyacrylamide gels and immunoblotted with anti-phospho-Smad2 antibody. Total amount of Smad2 was evaluated by re-blotting with anti-Smad2 polyclonal antibody.
Next, the effect of M10 on the levels of type I collagen in normal fibroblasts was investigated. […]

DDK-tagged Smad4 = target: T1, DDK-tagged Smad4 (Homo sapiens, UniProt Q13485); experiment: Protein interaction assay (pull-down with C12 antibody, anti-DDK blot); format: binding; conditions: 1 μg each, 4° C.
T1 construct: purchased OriGene Technologies (Rockville, Md.)
T1 sequence (Q13485 1-552): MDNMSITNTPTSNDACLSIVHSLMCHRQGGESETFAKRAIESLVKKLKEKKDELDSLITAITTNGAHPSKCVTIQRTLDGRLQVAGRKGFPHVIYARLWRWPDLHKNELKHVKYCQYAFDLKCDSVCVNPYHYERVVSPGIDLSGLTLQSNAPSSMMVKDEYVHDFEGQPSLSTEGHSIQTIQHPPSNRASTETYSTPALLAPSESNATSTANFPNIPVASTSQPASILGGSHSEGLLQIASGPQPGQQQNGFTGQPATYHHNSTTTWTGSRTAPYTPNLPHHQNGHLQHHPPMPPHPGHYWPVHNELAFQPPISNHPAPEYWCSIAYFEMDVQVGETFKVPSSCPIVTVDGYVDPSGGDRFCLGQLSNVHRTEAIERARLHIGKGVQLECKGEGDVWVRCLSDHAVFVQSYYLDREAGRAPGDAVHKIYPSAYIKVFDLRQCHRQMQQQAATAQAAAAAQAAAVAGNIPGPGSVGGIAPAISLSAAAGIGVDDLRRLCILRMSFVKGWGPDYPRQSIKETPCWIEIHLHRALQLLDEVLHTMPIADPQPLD

Smad2 [2] = target: T2, Smad2 (Homo sapiens, UniProt Q15796); experiment: Co-localization with Smad2 in primary lung fibroblasts; format: cell-based; conditions: with or without TGFβ
T2 construct: fibroblasts characterized by high expression of endogenous Smad2 were used; endogenous in cells; host or cells: primary scleroderma lung and skin fibroblasts; primary lung fibroblasts

[3] = target: T3, recombinant human Smad2 tagged with DDK (Homo sapiens, UniProt Q15796); experiment: Protein interaction assay (pull-down with C12 antibody, anti-DDK blot); format: binding; conditions: 1 μg each, 4° C.
T3 construct: purchased OriGene Technologies (Rockville, Md.)

[4] = tested on: Smad2 phosphorylation in lung and skin fibroblasts; experiment: TGFβ-induced Smad2 phosphorylation, immunoblot; format: cell-based, human; conditions: 1 μg/ml
[5] = tested on: primary normal lung fibroblasts; experiment: TGFβ-induced collagen type I, immunoblot; format: cell-based, human
SSc lung fibroblasts = experiment: Collagen type I expression, Western blot; format: cell-based, human; conditions: 1 μg/ml and 10 μg/ml for 24 hours
[6] = tested on: bleomycin-induced pulmonary fibrosis; conditions: bleomycin 2 U/kg intratracheal; peptide 10 mg/kg intraperitoneal every 48 hours; 3 weeks; mean±SD
Smad2 [7] = target: T2, Smad2; experiment: Co-immunoprecipitation with Smad2 in scleroderma lung and skin fibroblasts; format: cell-based; conditions: peptide 24 h
[8] = tested on: primary normal skin fibroblasts; experiment: TGFβ-induced collagen type I, immunoblot; format: cell-based, human
SSc skin fibroblasts = experiment: Collagen type I expression, Western blot; format: cell-based, human; conditions: 1 μg/ml and 10 μg/ml for 24 hours
[9] = peptide 1 μg/ml, 48 hours, p<0.01

TRPASFWETS [M10]
basal levels of collagen in LF ([1]; Example 3): no effect | basal levels of collagen ([1]; MRC5, without TGFβ): no effect | levels of TGFβ-induced collagen ([1]; MRC5, peptide 1 μg/ml, 48 hours, p<0.01): significantly reduced | interaction with DDK-tagged Smad4 (DDK-tagged Smad4): not with Smad4 | co-localization with Smad2 (Smad2 [2]): co-localize with or without TGFβ treatment | interaction with DDK-tagged Smad2 [3]: interactions with Smad2 | basal level of phospho-Smad2 or total Smad2 [4]: did not affect | TGFβ-induced Smad2 phosphorylation ([4]; TGFβ 5 ng/ml 20 minutes, lung and skin fibroblasts): decreased | levels of TGFβ-induced collagen [5, 9]: significantly reduced | basal levels of collagen ([5]; without TGFβ): no effect | collagen expression (SSc lung fibroblasts): effectively reduced collagen expression in a dose dependent manner | Ashcroft fibrosis score [6]: 1.67±1.01 | interaction with Smad2 by co-immunoprecipitation (Smad2 [7]): interaction | levels of TGFβ-induced collagen [8, 9]: significantly reduced | basal levels of collagen ([8]; without TGFβ): no effect | collagen expression (SSc skin fibroblasts): effectively reduced collagen expression in a dose dependent manner
